Literature values, collected in publication PMC7259466 (bioRxiv, 2020).

System: SARS-CoV-2
Conditions: cited from earlier work

## CN(C)CCCN1c2ccccc2CCc2ccc(Cl)cc21 [Clomipramine]
  IC50: 5.93 µM
